From patent US20090062309A1, “Therapeutic compositions for the treatment of cardiovascular diseases and methods for use therefor” (priority 2007, published 2009)

System: subjects with CHD having decreased RBC K content
Format: in vivo, human
Conditions: 1st month
Description: Subjects were evaluated by clinical angina (CCS angina Class II-IV), dyspnea, or arrhythmia.
Exclusion Criteria: Evidence of acute coronary syndrome, AMI, stroke or cardiac arrhythmias; NYHA class III-IV of heart failure, hyperkalemia. Informed consent was obtained in all. Other non CHD causes of chest pain, dyspnea, and arrhythmia had been ruled out.
In addition to that, a single dose of calcium gluconolactate (1 g/daily) was given to all subjects having plasma ionized ICa^2+ ≦1.1 mmol/L, while other Laboratory correction and drug assessment were conducted across the first 3-month period (Table 1) Safety control (ECG, Ion Transport Laboratory, BIA, Non-Invasive Hemodynamic) was obtained at 1, 3 and 6 months and 1 year. Clinical control was obtained weekly in the first month or as needed for physician or patient symptoms; thereafter a 3, 6 and 12 months.
The subjects were taken off any drug that might impair RBC transport, such as digitalis, β-blockers, or NSAID's, in subjects with RBC K^+ ≦90.2 mmol/L cell. Oral calcium gluconolactate (1 g/daily) was administered in all subjects with plasma ionized calcium ≦1.1 mmol/L. Subjects had correction of other plasma electrolyte abnormalities. The subjects were taken off any drug that may affect ventricular repolarization, as digoxin, calcium channel blockers (CCB), diuretics, β-blockers, or the like. […] Anti-aggregants or aspirin in subjects free of angina were discontinued after the 3rd month of treatment. […]

## Cl.NC(N)=NC(=O)c1nc(Cl)c(N)nc1N.O.O [Amiloride, 3,5-diamino-6-chloro-N-(diaminomethylene) pyrazinecarboxamide monohydrochloride, dihydrate]
  BIA Total Body Water and FFM (Fat-Free-Mass): significantly decreased
  plasma ICa2+: ≥ 1.05 mmol/L
  urinary Na+/K+ rate excretion: decreased
